# Assay results reported in PubChem BioAssay AID493014 (National Center for Advancing Translational Sciences (NCATS), 2011).
# Some of the results follow. These are further read-outs of the screen, such as a control signal, another cell line or another target. No call is given for them. Most of these compounds were active or inconclusive in the main read-out, so they are no random draw. Words in brackets tell the shape of the fitted curve; partial curves, single points and poor fits give uncertain potencies.
# Experiment: qHTS Assay to Find Inhibitors of Chronic Active B-Cell Receptor Signaling
# Details: ABC-DLBCL IkBa-CBG/CBR reporter, luminescence ratio (green luciferase fused to IkBa over red control in TMD8 lymphoma cells), 4 h
# In short: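 Compounds up to 46 uM were incubated four hours with TMD8 cells whose green CBG68 luciferase is fused to IkappaBalpha; red CBR luminescence normalised the signal, and concentration-effect curves were fitted to fusion, red and ratio data.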
# [1] = measured here: CBR red luminescence, cell number
# [2] = measured here: IkBa-CBG green luminescence
smiles,measurement,setting,value
CSc1nc(Cl)cc(N2CCOCC2)n1,AC50,[1],"3.98 µM [falling, partial curve, poor fit]"
CCOC(=O)CCCCC(=O)c1[nH]c(=O)[nH]c1CSc1nc2ccccc2[nH]1,AC50,[1],"20.6 µM [rising, partial curve, poor fit]"
CCOc1ccccc1N(CC(=O)NC1CCCCC1)C(=O)CCC(=O)Nc1nccs1,AC50,[1],"5.01 µM [falling, full curve, poor fit]"
Cc1cc(C)nc(N/N=C/c2ccccc2)n1,AC50,[1],"7.94 µM [falling, partial curve]"
Cc1ccc(OCc2cc(C(=O)N(C)CCc3ccccc3)no2)cc1C,AC50,[1],"0.631 µM [rising, full curve, poor fit]"
O=C(COc1ccc(-c2nnco2)cc1)Nc1c(F)cccc1F,AC50,[1],"1.3 µM [falling, full curve, poor fit]"
O=C(Nc1ccc2c(c1)OCO2)c1ccc2c(c1)OCO2,AC50,[1],"11.6 µM [falling, partial curve, poor fit]"
CNc1nc2c(-c3ccc(Cl)cc3)nnn2c2ccccc12,AC50,[1],"11.2 µM [rising, partial curve]"
CCOC(=O)Cc1c(Sc2ccccc2)c2ccccc2n1C,AC50,[1],"2.59 µM [falling, partial curve]"
COCCCn1c(Cc2ccccc2)nnc1SCC(=O)N1CCCCC1,AC50,[1],"15.8 µM [falling, single point]"
Cc1ccc(C)c(N2CCN(S(=O)(=O)c3cccc4cccnc34)CC2)c1,AC50,[1],"15.8 µM [falling, single point]"
COCc1nc2ccccc2n1Cc1ccccc1Br,AC50,[1],"7.94 µM [rising, partial curve]"
Nc1nc(-c2nc3ccccc3[nH]2)cs1,AC50,[1],"23.1 µM [falling, single point]"
O=C(C1CCCN(S(=O)(=O)c2cnc[nH]2)C1)N1CC(=O)N(CCc2ccccc2)C(=O)C1 (centres undefined),AC50,[1],"25.9 µM [rising, partial curve, poor fit]"
FC(F)(F)c1cccc(NC(=S)NCC2COc3ccccc3O2)c1 (centres undefined),AC50,[1],"18.4 µM [falling, single point]"
CN(CC(=O)Nc1ccc(Cl)cc1)C(=O)CNC(=O)c1ccc2ccccc2c1,AC50,[1],"3.16 µM [falling, partial curve, poor fit]"
N/C(=N\OC(=O)COc1ccc2ccccc2c1)c1cccnc1,AC50,[1],"2.31 µM [rising, full curve, poor fit]"
O=C(CC1Nc2ccccc2NC1=O)Nc1ccccc1NC(=O)CC1Nc2ccccc2NC1=O (centres undefined),AC50,[1],"7.08 µM [rising, partial curve]"
COc1cccc(OC)c1C(=O)Nc1cccc(-c2nc3ccccc3[nH]2)c1,AC50,[1],"35.5 µM [rising, single point]"
same,AC50,[2],"12.6 µM [falling, single point]"
COc1ccc2cc(OC)c(C(=O)N3CCOCC3)cc2c1,AC50,[1],"3.55 µM [rising, partial curve, poor fit]"
Cc1occc1C(=O)N1CCN(c2ncccn2)CC1,AC50,[1],"32.6 µM [rising, single point]"
Cc1ccccc1CN(C)CCS(=O)(=O)c1cc(Cl)ccc1Cl,AC50,[1],"35.5 µM [rising, single point]"
same,AC50,[2],"22.4 µM [falling, single point]"
Cc1ccc2nc(N3C(=O)CNC3=S)sc2c1,AC50,[1],"12.6 µM [falling, single point]"
CCN(C[C@H]1N[C@@](Cc2ccccc2)(C(=O)OC)[C@H]2C(=O)N(Cc3ccccc3)C(=O)[C@@H]12)C(=O)Nc1ccc(C)cc1,AC50,[1],"29.1 µM [falling, single point]"
CC(=O)Nc1cccc(NC(=O)c2cccc(OCc3ccccc3)c2)c1,AC50,[1],"35.5 µM [falling, single point]"
Cc1ccc(OCCn2cc(Br)c(=O)[nH]c2=O)cc1,AC50,[1],"4.47 µM [rising, full curve, poor fit]"
CC(C)C[C@H](NC(=O)c1nc[nH]c1C(=O)NCC(=O)OCc1ccccc1)C(=O)OCc1ccccc1,AC50,[1],"7.08 µM [falling, partial curve, poor fit]"
CCOC(=O)C1CCCCN1Cc1cccc(F)c1 (centres undefined),AC50,[1],"18.4 µM [falling, single point]"
COCCCNC(=O)c1ccc(-n2nc(C(F)(F)F)cc2-c2cccs2)cc1,AC50,[1],"23.1 µM [falling, single point]"
O=C(CC(Cc1ccccc1)C(=O)O)NCCc1ccc2c(c1)OCO2 (centres undefined),AC50,[1],"0.366 µM [rising, full curve, poor fit]"
Cc1ccccc1NC(=O)CON=C(N)c1ccccc1,AC50,[1],"5.17 µM [falling, partial curve]"
CC(C)(C)c1cc(OC(=O)C2CCCC2)ccc1O,AC50,[2],"20 µM [falling, partial curve, poor fit]"
COC(=O)c1ccccc1NC(=O)c1ccc(-c2ccc(Br)cc2)o1,AC50,[1],"0.184 µM [falling, full curve, poor fit]"
CC(=O)c1sc(NC(=O)CCCOc2ccc(Cl)cc2)nc1C,AC50,[1],"0.891 µM [rising, full curve, poor fit]"
Cc1cc(C)cc(N2C(=O)C3CCCN3C2=S)c1 (centres undefined),AC50,[1],"11.2 µM [rising, partial curve]"
Cc1ccc2nc(-c3sc4nc(C)ccc4c3N)[nH]c2c1,AC50,[2],"0.92 µM [rising, full curve, poor fit]"
Oc1ccc(NCc2ccccc2OCc2ccccc2F)cc1,AC50,[1],"6.31 µM [rising, full curve]"
same,AC50,[2],"17.8 µM [falling, single point]"
CC(=O)Nc1ccc(NC(=O)C/C(C)=N/NC(N)=S)cc1,AC50,[1],"14.1 µM [falling, partial curve, poor fit]"
same,AC50,[2],"25.1 µM [falling, single point]"
O=C(O)c1ccc(-n2c(O)c(C=C3N=c4ccccc4=N3)sc2=S)cc1,AC50,[1],"11.2 µM [falling, partial curve, poor fit]"
Cc1cc(C(F)(F)F)nn1Cc1ccc(C(=O)NCc2ccco2)o1,AC50,[1],"16.4 µM [falling, partial curve]"
same,AC50,[2],"23.1 µM [rising, partial curve, poor fit]"
CC(=O)Nc1ccccc1NC(=O)CN(C)S(=O)(=O)c1ccc(C)cc1,AC50,[1],"6.51 µM [falling, single point]"
CC(C)n1cc(/C=C2\NC(=O)N(c3cccc(Cl)c3)C2=O)c2ccccc21,AC50,[1],"0.517 µM [falling, full curve, poor fit]"
Cc1nc2ccccn2c1C(=O)CSc1cccc(Cl)c1,AC50,[1],"35.5 µM [falling, single point]"
O=C(Nc1ccc(SC(F)(F)F)cc1)c1ccccn1,AC50,[1],"12.6 µM [falling, partial curve]"
Cn1cc(/C=C/C(=O)c2ccccc2)c2ccccc21,AC50,[1],"1.26 µM [falling, full curve]"
COc1ccc2nc3sc(C(=O)N4CCN(C)CC4)cc3cc2c1,AC50,[1],"0.13 µM [falling, full curve, poor fit]"
CCOC(=O)c1ccc(NC(=S)N2CCCC(C(=O)OCC)C2)cc1 (centres undefined),AC50,[1],"12.6 µM [falling, single point]"
COc1cccc(CN(C)C(=O)CCN(c2ccccc2)S(=O)(=O)c2ccc(C)cc2)c1OC,AC50,[1],"2.31 µM [rising, partial curve, poor fit]"
Nc1ccc(Cc2nc3c(ccc4ccccc43)[nH]2)cc1,AC50,[1],"17.8 µM [falling, partial curve, poor fit]"
Cn1c(CCN2CCCCC2)nc2cc([N+](=O)[O-])ccc21,AC50,[1],"20 µM [falling, single point]"
CCS(=O)(=O)N1CCN(S(=O)(=O)c2ccc3c(c2)OCCO3)CC1,AC50,[1],"1 µM [falling, partial curve]"
CCCCC(=O)Nc1c(C)cc(C)cc1Cl,AC50,[1],"6.51 µM [rising, partial curve, poor fit]"
O=C(O)CSc1nnc(-c2ccncc2)n1Cc1ccccc1,AC50,[1],"32.6 µM [falling, single point]"
CC(C)(C)C(=O)N=C1SC2CS(=O)(=O)CC2N1c1ccc2c(c1)OCO2 (centres undefined),AC50,[1],"6.51 µM [rising, partial curve, poor fit]"
O=C(CSc1nc2ccccc2s1)N/N=C/c1ccco1,AC50,[1],"5.8 µM [rising, partial curve, poor fit]"
CS(=O)(=O)NCCCCCCNS(C)(=O)=O,AC50,[1],"14.1 µM [falling, partial curve]"
Cc1cc2c(s1)c1c(C)nn(Cc3ccccc3F)c(=O)c1n2C,AC50,[1],"7.31 µM [falling, partial curve, poor fit]"
CCn1c2ccccc2c2nnc(SCC(=O)NC3CCS(=O)(=O)C3)nc21 (centres undefined),AC50,[1],"32.6 µM [rising, partial curve, poor fit]"
N#C/C(=C\c1cccc(OC(=O)c2cccs2)c1)C(N)=O,AC50,[1],"2.31 µM [rising, partial curve, poor fit]"
COCCOC1CCN(C(=O)C2CCC(=O)N(CCc3ccc(OC)cc3)C2)CC1 (centres undefined),AC50,[1],"6.31 µM [rising, single point]"
COC(=O)CSc1nc(C)cc(C)c1C#N,AC50,[2],"3.55 µM [rising, full curve, poor fit]"
CCOC(=O)c1cc(NC(=O)c2ccoc2C)cc(C(=O)OCC)c1,AC50,[1],"29.1 µM [falling, single point]"
O=C(/C=C/c1cccs1)Nc1ccc(N2CCOCC2)c(S(=O)(=O)Nc2ccccc2Cl)c1,AC50,[1],"10.3 µM [falling, partial curve, poor fit]"
CCOC(=O)c1ccccc1NC(=O)CSc1nc(=O)[nH]c2c1CCC2,AC50,[1],"3.55 µM [falling, partial curve, poor fit]"

# Shown as tab-separated lines: part of the list above
smiles	measurement	setting	value
COCCCn1c(Cc2ccccc2)nnc1SCC(=O)N1CCCCC1	AC50	[1]	15.8 µM [falling, single point]
Cc1ccc2nc(N3C(=O)CNC3=S)sc2c1	AC50	[1]	12.6 µM [falling, single point]
CCCCC(=O)Nc1c(C)cc(C)cc1Cl	AC50	[1]	6.51 µM [rising, partial curve, poor fit]
CS(=O)(=O)NCCCCCCNS(C)(=O)=O	AC50	[1]	14.1 µM [falling, partial curve]
